Measurements as given in PubChem BioAssay AID342 (DTP/NCI, 2004).
The list is a part of this screen's results and no random one: it gathers tests that were run many times, whatever their T/C, doses with no T/C, and many T/C values between a quarter and a half above the control. Further doses and runs are listed elsewhere. T/C is the treated group as % of the vehicle group. Schedules are NCI's codes, read here as Q, the interval in days (D) or hours (H), X, the number of doses. Some entries hold several experiments; the results are listed from low to high. Some T/C values are followed by the survivors on the day toxicity was checked, most often the fifth; where none is given, no animal had died by that day. Some doses have a count of surviving animals in place of a T/C: the source files T/C as zero there, which appears to mark a toxic dose or a test without result, not a measured value. Counts of survivors are from the toxicity check (mostly the fifth day) where no day follows; animals may have died later. Some schedules carry Z or #; the key to these is not given. Square brackets hold non-standard residues; d marks the D form. Peptide text beside a SMILES is read from it. ξ: configuration not given here. Ac5c = NC1(C(=O)O)CCCC1; ξS = NC(CO)C(=O)O

Tested on: Swiss mice, Sarcoma 180 sc, mean tumor weight T/C
Experiment: NCI In Vivo Anticancer Drug Screen. Data for tumor model Sarcoma 180 (subcutaneous) in Swiss mice
Conditions: T/C endpoint: mean tumor weight, higher T/C = larger tumour; for T/C: evaluated on day 8
Method in brief: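 Tumor-bearing mice, transplantable tumor; readout survival or tumor size; result = T/C, treated vs vehicle control.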

[1] = dose: 37.5 mg/kg/injection, schedule: Q#A X014 (ip), vehicle: methylcellulose (MC)
[2] = dose: 500.0 mg/kg/injection, schedule: Q01DX007 (ip), vehicle: saline
[3] = dose: 500.0 mg/kg/injection, schedule: Q01DX007 (ip), vehicle: carboxymethylcellulose (CMC)

Compound: CC1OC(OC2C(CO)OC(O[C@H]3CC[C@@]4(C)C(=CC[C@H]5[C@@H]6C[C@@H]7O[C@@]8(CC[C@H](C)CN8)[C@@H](C)[C@@H]7[C@@]6(C)CC[C@@H]54)C3)C(OC3OC(C)C(O)C(O)C3O)C2O)C(O)C(O)C1O (some centres not stated)
- survivor count (dose: 20.0 mg/kg/injection, schedule: Q01DX007 (ip), vehicle: saline): 2 of 4

Compound: CC(=O)OCC(=O)[C@@]1(O)CC[C@H]2[C@@H]3C[C@@H](C)C4=CC(=O)C=C[C@]4(C)[C@H]3[C@@H](O)C[C@@]21C
- survivor count (dose: 563.0 mg/kg/injection, schedule: Q01DX007 (sc), vehicle: steroid suspending solution): 3 of 6

Compound: NC(CO)C(=O)NC1(C(=O)O)CCCC1 (configuration not stated) (H-[ξS]-[Ac5c]-OH)
- survivor count (dose: 375.0 mg/kg/injection, schedule: Q01DX007 (ip), vehicle: carboxymethylcellulose (CMC)): 2 of 6

Compound: CC1=C2C(=CC(C)(C)[C@@H]2O)C(=O)[C@](C)(O)C12CC2
- survivor count (dose: 0.6 mg/kg/injection, schedule: Q01DX007 (ip), vehicle: saline): 2 of 6

Compound: O=C(O)Cc1ccc(C2CCCCC2)cc1
- T/C (dose: 150.0 mg/kg/injection, schedule: Q01DX007 (ip), vehicle: carboxymethylcellulose (CMC)): 136 % of control
- survivor count (dose: 1200.0 mg/kg/injection, schedule: Q01DX007 (ip), vehicle: carboxymethylcellulose (CMC)): 1 of 7

Compound: CO[C@H]1CC[C@@]2(C)C(=CC[C@H]3[C@@H]4C[C@H](O)C[C@@]4(C)CC[C@@H]32)C1
- T/C (dose: 10.0 mg/kg/injection, schedule: Q01DX007 (sc), vehicle: steroid suspending solution): 131 % of control

Compound: OCC(F)(F)C(F)(F)C(F)(F)F
- T/C (dose: 250.0 mg/kg/injection, schedule: Q01DX007 (ip), vehicle: saline): 128 % of control
- survivor count (dose: 1000.0 mg/kg/injection, schedule: Q01DX007 (ip), vehicle: saline): 0 of 6 and 4 of 8

Compound: OCC1OC(n2cnc3c(Cl)ncnc32)C(O)C1O (configuration not stated)
- T/C (dose: 600.0 mg/kg/injection, schedule: Q01DX007 (ip), vehicle: carboxymethylcellulose (CMC)): 129 % of control

Compound: O=C1C=CC(=O)N1c1ccc2c(c1)C(Br)c1ccccc1-2 (configuration not stated)
- survivor count [1]: 3 of 6

Compound: C[C@H]1/C(=C/C(=O)OCCN(C)C)CC[C@H]2[C@H]1C(=O)C[C@H]1C(C)(C)[C@@H](O)CC[C@]21C
- survivor count (dose: 30.0 mg/kg/injection, schedule: Q01DX007 (ip), vehicle: saline): 0 of 6
- survivor count (dose: 60.0 mg/kg/injection, schedule: Q01DX007 (ip), vehicle: saline): 0 of 6
- survivor count (dose: 120.0 mg/kg/injection, schedule: Q01DX007 (ip), vehicle: saline): 0 of 6

Compound: COC(=O)CC(C(=O)C=[N+]=[N-])N1C(=O)c2ccccc2C1=O (configuration not stated)
- T/C (dose: 3.2 mg/kg/injection, schedule: Q01DX007 (ip), vehicle: carboxymethylcellulose (CMC)): 138 % of control

Compound: CN1CCC23c4c5ccc(O)c4OC2C(O)C=CC3C1C5 (configuration not stated)
- survivor count [2]: 0 of 6

Compound: CO[C@H]1C[C@H](O[C@H]2CC[C@]3(C=O)[C@H]4CC[C@]5(C)[C@@H](C6=CC(=O)OC6)CC[C@]5(O)[C@@H]4CC[C@]3(O)C2)O[C@H](C)[C@H]1O
- survivor count (dose: 10.0 mg/kg/injection, schedule: Q01DX007 (sc), vehicle: saline): 2 of 6
- survivor count (dose: 20.0 mg/kg/injection, schedule: Q01DX007 (sc), vehicle: saline): 3 of 6

Compound: CNNCc1ccc(C(=O)NC(C)C)cc1
- survivor count [3]: 0 of 6
- survivor count [2]: 0 of 6
- survivor count (dose: 750.0 mg/kg/injection, schedule: Q01DX007 (ip), vehicle: saline): 0 of 6

Compound: COc1ccc2c3c(c4cc(OC)c(OC)cc4c2c1)C[C@H]1CCCCN1C3
- survivor count (dose: 2.0 mg/kg/injection, schedule: Q01DX007 (ip), vehicle: carboxymethylcellulose (CMC)): 0 of 6
- survivor count (dose: 3.0 mg/kg/injection, schedule: Q01DX007 (ip), vehicle: carboxymethylcellulose (CMC)): 0 of 5

Compound: CCCCCCCCCCOP(N)(=O)OCCCCCCCCCC
- survivor count (dose: 62.5 mg/kg/injection, schedule: Q#A X014 (ip), vehicle: carboxymethylcellulose (CMC)): 1 of 6 and 3 of 6
- survivor count (dose: 93.75 mg/kg/injection, schedule: Q#A X014 (ip), vehicle: carboxymethylcellulose (CMC)): 1 of 6

Compound: CN(C)c1ccc(/C=C\c2ccnc3ccccc23)cc1
- T/C (dose: 10.0 mg/kg/injection, schedule: Q01DX007 (ip), vehicle: methylcellulose (MC)): 143 % of control
- survivor count (dose: 100.0 mg/kg/injection, schedule: Q01DX007 (ip), vehicle: water): 1 of 6

Compound: O=c1[nH]cc(F)c(=O)[nH]1
- T/C (dose: 19.0 mg/kg/injection, schedule: Q01DX007 (ip), vehicle: carboxymethylcellulose (CMC)): 66, 67, 70, 82 % of control
- T/C (dose: 38.0 mg/kg/injection, schedule: Q01DX007 (ip), vehicle: carboxymethylcellulose (CMC)): 1 [8 of 10 alive], 16 [9 of 10 alive], 29, 64 % of control

Compound: CSc1nc(C)c(Br)c(Sc2nc(N)nc3nc[nH]c23)n1
- survivor count (dose: 24.0 mg/kg/injection, schedule: Q01DX007 (ip), vehicle: carboxymethylcellulose (CMC)): 3 of 6
- survivor count (dose: 55.0 mg/kg/injection, schedule: Q01DX007 (ip), vehicle: carboxymethylcellulose (CMC)): 2 of 6

Compound: COc1ccccc1NC(=O)CSC(N)=O
- survivor count [3]: 3 of 7

Compound: CS(=O)(=O)OCCCCCOS(C)(=O)=O
- survivor count [1]: 3 of 6
- survivor count (dose: 56.5 mg/kg/injection, schedule: Q#A X014 (ip), vehicle: methylcellulose (MC)): 3 of 6

Compound: O=C(O)CCC(=O)CCl
- survivor count (dose: 45.0 mg/kg/injection, schedule: Q01DX007 (ip), vehicle: saline): 0 of 7

Compound: Cn1cnc([N+](=O)[O-])c1Sc1nc(N)nc2nc[nH]c12
- survivor count (dose: 2.0 mg/kg/injection, schedule: Q#A X014 (ip), vehicle: methylcellulose (MC)): 3 of 6
- survivor count (dose: 5.0 mg/kg/injection, schedule: Q#A X014 (ip), vehicle: methylcellulose (MC)): 3 of 6

Compound: CO[C@H]1CC[C@@]2(C)C(=CC[C@@H]3[C@@H]2CC[C@]2(C)C(=O)C(=O)C[C@@H]32)C1
- survivor count (dose: 15.0 mg/kg/injection, schedule: Q01DX007 (sc), vehicle: steroid suspending solution): 3 of 6
- survivor count (dose: 50.0 mg/kg/injection, schedule: Q01DX007 (sc), vehicle: steroid suspending solution): 3 of 6

Compound: CC(C)=C(Br)CC[C@@H](C)[C@H]1CC[C@@]2(C)C3=C(CC[C@]12C)[C@@]1(C)CC[C@H](O)C(C)(C)[C@@H]1CC3
- T/C (dose: 250.0 mg/kg/injection, schedule: Q01DX007 (sc), vehicle: steroid suspending solution): 133 % of control

Compound: CC(=O)Nc1cc2oc3ccccc3c2cc1[N+](=O)[O-]
- survivor count (dose: 500.0 mg/kg/injection, schedule: Q01DX007 (ip), vehicle: methylcellulose (MC)): 4 of 7
- survivor count (dose: 750.0 mg/kg/injection, schedule: Q01DX007 (ip), vehicle: methylcellulose (MC)): 3 of 7

Compound: CCC1OCCN1C(C)C (configuration not stated)
- survivor count (dose: 187.5 mg/kg/injection, schedule: Q01DX007 (ip), vehicle: saline): 2 of 7

Compound: CCCN(C)/N=N/c1nc[nH]c1C(N)=O
- survivor count (dose: 91.0 mg/kg/injection, schedule: Q01DX007 (ip), vehicle: carboxymethylcellulose (CMC)): 3 of 6

Compound: Cc1cc(C)c(N)c(C)c1N
- survivor count (dose: 187.5 mg/kg/injection, schedule: Q#A X014 (ip), vehicle: methylcellulose (MC)): 2 of 6 and 3 of 6

Compound: CS(=O)(=O)OCCCl
- survivor count (dose: 53.4 mg/kg/injection, schedule: Q#A X014 (ip), vehicle: carboxymethylcellulose (CMC)): 5 of 10

Compound: C=CCOc1ccc2c(c1)CC[C@@H]1[C@@H]2CC[C@]2(C)[C@@H](O)[C@@H](O)C[C@@H]12
- survivor count (dose: 10.0 mg/kg/injection, schedule: Q#A X014 (ip), vehicle: methylcellulose (MC)): 3 of 6

Compound: Nc1nc(=S)c2ncn(C3OC(COC(=O)c4ccc([N+](=O)[O-])cc4)C(OC(=O)c4ccc([N+](=O)[O-])cc4)C3OC(=O)c3ccc([N+](=O)[O-])cc3)c2[nH]1 (configuration not stated)
- survivor count (dose: 80.0 mg/kg/injection, schedule: Q01DX007 (ip), vehicle: carboxymethylcellulose (CMC)): 3 of 6

Compound: CCCCCCCCCCCCCCCC[N+]1(C)CCN(SN2CC[N+](C)(CCCCCCCCCCCCCCCC)CC2)CC1
- survivor count (dose: 47.5 mg/kg/injection, schedule: Q#A X014 (ip), vehicle: saline): 3 of 6
- survivor count (dose: 71.5 mg/kg/injection, schedule: Q#A X014 (ip), vehicle: saline): 1 of 6

Compound: CS(=O)(=O)OCCCCOS(C)(=O)=O
- survivor count (dose: 50.0 mg/kg/injection, schedule: Q#A X014 (ip), vehicle: carboxymethylcellulose (CMC)): 3 of 6
- survivor count (dose: 79.0 mg/kg/injection, schedule: Q01DX007 (ip), vehicle: carboxymethylcellulose (CMC)): 2 of 10
